In PubChem BioAssay AID2685 (National Center for Advancing Translational Sciences (NCATS), 2010):
The campaign covered roughly 320,000 compounds. About 2,100 (0.66%) were called active. Inconclusive results, whose numbers are uncertain, are shown with a selection of clear calls. The call rests on the fitted dose curve; in most records, active means well fitted inhibition curve with a large enough effect in the signal ratio, with a control signal flat (not every such curve was filed as active); inconclusive means small, poorly fitted or top-dose-only effect, or effect the other way, or a change in a side signal; inactive means flat fitted curve, though single readings scatter; the % refers to the signal ratio. Potencies beside an inconclusive call are fits to weak or partial responses and may not hold up.
On the % scale 0 is the no-effect control and ±100 the full control effect; potency means the concentration at half of the fitted maximal effect.

Assay: qHTS Assay for Lipid Storage Modulators in Drosophila S3 Cells
Conditions: BODIPY lipid droplet fluorescence, 18-24 h, cells fed with added oleic acid; lipid storage change, negative = inhibition: at 46.1 µM (top of the series) unless noted
Method in brief: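 Laser-scanning cytometry quantifies lipid droplet accumulation (500–530 nm total intensity; droplet/cell object ratio) in oleic acid-fed (400 uM added) Drosophila S3 cells treated with a concentration series. 20 uM Triacsin C defined 100% inhibition.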
For `COC(=O)c1ccc(NC(=O)NCCCl)cc1`, the lipid storage change, negative = inhibition was inconclusive: 2.58%. With `CC1CCc2c(sc(NC(=O)C3=COCCO3)c2C(N)=O)C1` (configuration not stated) the Potency was inconclusive: 0.146 µM [activator, full curve, poor fit]. In the case of `COc1ccccc1CNC(=O)C1CCC(CNc2c(N3CCOCC3)c(=O)c2=O)CC1` (configuration not stated), the lipid storage change, negative = inhibition is reported as inconclusive: 0.708%. In the case of `COc1ccc(NC(=O)CCNC(=O)c2ccc([N+](=O)[O-])cc2)cc1S(=O)(=O)N1CCCCC1`, the lipid storage change, negative = inhibition is reported as “inconclusive”. For `Cn1nc([N+](=O)[O-])nc1Oc1ccccc1`, the Potency was inconclusive: 6.51 µM [falling, single point]. In the case of `CC(=O)Nc1ccc(Sc2ncccc2C(=O)Nc2ccc(OC(F)(F)F)cc2)cn1`, the lipid storage change, negative = inhibition is reported as inconclusive: -37%. With `CCCCn1c(N)c(N(CC(C)C)C(=O)c2ccc(S(=O)(=O)N3CCCCCC3)cc2)c(=O)[nH]c1=O` the lipid storage change, negative = inhibition was “inconclusive”. With `COc1cc(NS(=O)(=O)c2ccc(N/C=C(\C#N)c3nc4ccccc4o3)cc2)nc(OC)n1` the lipid storage change, negative = inhibition was inconclusive: 36.6%. In the case of `O=C(CSc1nnnn1C1CCCCC1)N1CCOCC1`, the lipid storage change, negative = inhibition is reported as inconclusive: -7.04%. For `COC(=O)[C@@]12OC[C@]34[C@H]([C@@H](O)[C@@H]1O)[C@@]1(C)C(=O)C(O[C@@H]5OC(CO)[C@@H](O)[C@@H](O)[C@@H]5O)=C[C@@H](C)[C@@H]1C[C@H]3OC(=O)[C@H](OC(=O)/C=C(\C)C(C)(C)OC(C)=O)[C@@H]24` (some centres not stated), the Potency was inconclusive: 4.11 µM [falling, partial curve, poor fit]. For `Cc1nnc(NCCc2ccccc2)[nH]c1=O`, the lipid storage change, negative = inhibition was inconclusive: 15.5%. With `O=C(Cn1cnc2c(nnn2Cc2ccccc2)c1=O)c1ccccc1` the lipid storage change, negative = inhibition was inconclusive: 18.1%. With `CC1CCC2(CC1)NC(=O)N(CC(=O)NCCc1ccc(F)cc1)C2=O` (configuration not stated) the lipid storage change, negative = inhibition was inconclusive: 15.2%. For `FC(F)(F)c1ccc(C2NCCc3sccc32)cc1` (configuration not stated), the Potency was inconclusive: 29.1 µM [cytotoxic, single point]. In the case of `CCCNC(=O)CCn1cc(-c2ccc(OC)cc2)nc1-c1ccncc1`, the Potency is reported as inconclusive: 20.6 µM [activator, single point]. In the case of `COc1ccc(C)cc1NC(=O)c1cc2c(s1)CCC2`, the lipid storage change, negative = inhibition is reported as inconclusive: 54.8%. With `O=C(c1ccccc1O)N1N=C(C(F)(F)F)CC1(O)c1ccc([N+](=O)[O-])cc1` (configuration not stated) the lipid storage change, negative = inhibition was inconclusive: 59.1%. With `CCN(CC)c1ccc(/C=C2/C(=O)N(c3ccc([N+](=O)[O-])cc3)N=C2N2CCOCC2)cc1` the lipid storage change, negative = inhibition was inconclusive: -32.9% [at 0.0737 µM]. In the case of `CC(Cl)C(=O)Nc1cc(C(C)(C)C)nn1-c1ccccc1` (configuration not stated), the lipid storage change, negative = inhibition is reported as inconclusive: 12.6% [at 9.22 µM]. With `COc1ccc(/C=N\NC(=O)CNC(=O)C2COc3ccccc3O2)cc1[N+](=O)[O-]` (configuration not stated) the Potency was inconclusive: 7.31 µM [falling, single point]. With `O=C(O)CCN1CCN(S(=O)(=O)c2ccc3ccccc3c2)CC1` the Potency was inconclusive: 10.3 µM [activator, partial curve]. For `Cc1ccc2nc(-c3ccccc3)c(CN3CCN(c4ccccc4F)CC3)n2c1`, the lipid storage change, negative = inhibition was inconclusive: 17.3%. In the case of `COc1cccc(/C(O)=C2/C(=O)C(=O)N(CCN(C)C)C2c2ccc(Br)cc2)c1` (configuration not stated), the Potency is reported as active: 2.31 µM. For `CCOCCn1c(COc2ccc(C)cc2)nc2ccccc21`, the Potency was inconclusive: 6.51 µM [activator, partial curve]. For `O=C(Nc1ncn[nH]1)c1ccccc1Br`, the lipid storage change, negative = inhibition was inconclusive: -18.7%. For `COC(=O)c1ccccc1OCCCN(C)C`, the lipid storage change, negative = inhibition was inconclusive: 7.03%. For `Cc1csc2nc(CCNS(=O)(=O)c3ccc4c(c3)OCCO4)cn12`, the lipid storage change, negative = inhibition was inconclusive: 20.7% [at 9.22 µM]. For `BrC(=C\c1ccccc1)/C=N/N1CCN(Cc2ccccc2)CC1`, the Potency was inconclusive: 20.6 µM [rising, single point]. For `CCC(=O)N1CCc2cc(S(=O)(=O)NCCC(=O)N3CCN(Cc4ccccc4)CC3)ccc21`, the lipid storage change, negative = inhibition was inconclusive: 27.2%. With `COc1ccc(OCC(=O)Nc2c(C(=O)N3CCN(C)CC3)oc3ccccc23)cc1` the lipid storage change, negative = inhibition was inconclusive: 28.7%. With `O=c1[nH][nH]c(C(F)(F)F)c1C=NCc1ccccc1Cl` the lipid storage change, negative = inhibition was inconclusive: 14.8%. For `CC(C)Oc1ccc(S(=O)(=O)N2CCOCC2)cc1NC(=O)Cc1cccs1`, the lipid storage change, negative = inhibition was “inconclusive”. In the case of `CCc1nnc(NC(=O)CSc2nnc(COc3ccc(C#N)cc3)n2-c2ccccc2)s1`, the Potency is reported as inconclusive: 18.4 µM [activator, partial curve]. In the case of `C=CCOc1ccc(CN(C)CC(=O)Nc2ccccc2[N+](=O)[O-])cc1`, the lipid storage change, negative = inhibition is reported as inconclusive: 28.8%. For `O=c1[nH]c(SCc2ccc(Cl)cc2)nc2[nH]ncc12`, the lipid storage change, negative = inhibition was inconclusive: 15.5%. For `CC(C)c1nnc(NC(=O)c2nc(S(=O)(=O)Cc3ccc(F)cc3)ncc2Cl)s1`, the Potency was inconclusive: 6.51 µM [cytotoxic, partial curve, poor fit]. With `Cc1ccccc1N1CCN(C2=NC(=O)/C(=C/c3cn[nH]c3-c3ccccc3)S2)CC1` the lipid storage change, negative = inhibition was inconclusive: 29.7%. For `COC(=O)c1ccc(CSc2nc3ccccc3c(=O)n2N)cc1`, the lipid storage change, negative = inhibition was “inactive”. With `COCCn1nnnc1C(c1ccc(OC)c(OC)c1)N1CCc2ccccc21` (configuration not stated) the lipid storage change, negative = inhibition was inconclusive: 25.5%. In the case of `O=[N+]([O-])c1cccc(Nc2c3ccccc3nc3ccccc23)c1`, the lipid storage change, negative = inhibition is reported as inconclusive: -24.5%. For `CC1(C)C(=O)Nc2ccccc2N1C(=O)COc1cc(Cl)ccc1Cl`, the lipid storage change, negative = inhibition was inconclusive: 94.1%. In the case of `Cc1nc(SC(C(N)=O)c2ccccc2)c(C#N)c(C)c1C` (configuration not stated), the lipid storage change, negative = inhibition is reported as inconclusive: 32.6%. In the case of `COc1ccc(C(C)C)cc1S(=O)(=O)NCc1ccccn1`, the Potency is reported as inconclusive: 25.9 µM [falling, single point]. In the case of `CC1=CC(=O)C=C(C)C1=NOS(=O)(=O)c1ccccc1`, the Potency is reported as inconclusive: 11.6 µM [cytotoxic, partial curve]. In the case of `Cc1ccc(NC(=O)COC(=O)c2cc(Cl)ccc2[N+](=O)[O-])c(C)c1`, the lipid storage change, negative = inhibition is reported as inconclusive: 14.3%. In the case of `CC(C(=O)O)N1C(=O)c2cccc3cccc1c23` (configuration not stated), the lipid storage change, negative = inhibition is reported as inconclusive: -23.1%. In the case of `Cc1ccnc(NC(=O)c2ccc(S(=O)(=O)NCc3ccco3)cc2)c1`, the lipid storage change, negative = inhibition is reported as inconclusive: 25.4%.
